Values joined by “and” are separate entries in the source; they are usually repeats but may differ in a detail not shown here. Identical values can stand only once. Screen size: about 580,000 compounds; about 6,100 (1.1%) were called active. This list was built around the results that the source calls inconclusive (neither active nor inactive); the mix of calls is not that of the screen. Calls follow the shape of the dose curve; as a rule, active = well fitted inhibition curve with a large enough effect; inconclusive = small, poorly fitted or top-dose-only effect, or another doubt; inactive = no such curve, though single readings can be large or run the other way. Where the call is inconclusive, the potency comes from a doubtful curve fit.
Biological target: Polyunsaturated fatty acid lipoxygenase ALOX12 (Homo sapiens) (UniProt P18054)
Experiment: Primary qHTS assay for inhibitors of human arachidonate 12S-lipoxygenase (ALOX12): Round 2
Settings: purified 12hLO, xylenol orange hydroperoxide absorbance; activity change, negative = inhibition: at 108 µM (top of the series) unless noted
In short: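 Purified human 12hLO (150 nM final) in 25 mM Hepes, 0.01% Triton X-100, pH 7.0 was preincubated 15 min at room temperature with compound. Then 40 uM arachidonic acid was added, 30 min. Hydroperoxide was read by Fe-XO absorbance ratio 573/405 nm.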
% is scaled to controls: 0 for no effect and ±100 for the full control effect; potency is read from the fitted curve at half-maximal effect.

The chains behind the UniProt entries cited, without tags or fusion partners. Where a name states a change or a piece, a line headed by the entry shows the natural chain unless it says otherwise.
UniProt P18054: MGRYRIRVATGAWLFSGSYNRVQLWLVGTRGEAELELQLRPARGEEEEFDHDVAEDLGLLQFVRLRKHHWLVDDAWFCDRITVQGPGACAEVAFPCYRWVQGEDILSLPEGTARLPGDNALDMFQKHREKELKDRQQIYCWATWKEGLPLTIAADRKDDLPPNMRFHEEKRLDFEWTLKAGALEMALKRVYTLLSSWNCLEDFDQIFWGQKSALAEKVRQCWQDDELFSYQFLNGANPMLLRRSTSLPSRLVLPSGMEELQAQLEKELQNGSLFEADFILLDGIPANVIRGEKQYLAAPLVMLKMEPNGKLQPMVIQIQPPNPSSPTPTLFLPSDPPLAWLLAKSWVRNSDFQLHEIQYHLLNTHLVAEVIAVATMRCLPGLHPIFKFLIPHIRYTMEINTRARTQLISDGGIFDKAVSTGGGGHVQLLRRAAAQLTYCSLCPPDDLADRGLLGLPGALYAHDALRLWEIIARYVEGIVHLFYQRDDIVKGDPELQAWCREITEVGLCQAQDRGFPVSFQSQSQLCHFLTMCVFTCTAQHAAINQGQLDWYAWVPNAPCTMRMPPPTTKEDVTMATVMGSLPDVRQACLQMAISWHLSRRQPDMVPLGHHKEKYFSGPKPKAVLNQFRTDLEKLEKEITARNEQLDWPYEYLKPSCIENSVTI

Row | SMILES | Potency | activity change, negative = inhibition
1 | CCN(CC)c1ncnc2c1ncn2[C@H]1CN(Cc2ccc(Cl)cc2)C[C@@H](CO)O1 | inconclusive: 35.5 µM [inhibitor, partial curve] | –
2 | Cc1ccc(F)cc1NC(=O)c1ccc(NS(=O)(=O)c2ccc(Br)s2)cc1 | inconclusive: 28.2 µM [inhibitor, partial curve] | –
3 | Cc1cc(C(=O)N(Cc2ccco2)C2CC2)sc1C | inconclusive: 12.6 µM [inhibitor, full curve] | –
4 | O=C(c1ccc(S(=O)(=O)N2CCCCCC2)cc1)N1CCN(Cc2ccccc2)CC1 | inactive | –
5 | Cc1ccc(NC2CCCN(C(=O)c3cn(C)c4ccccc34)C2)cc1C (stereo unspecified) | inconclusive: 50.1 µM [inhibitor, partial curve, poor fit] | –
6 | CN(CC(=O)Nc1ccc(Cl)c(Cl)c1)C(=O)c1ccc2ccccc2c1 | inactive | –
7 | Cc1cc(NC(=O)c2cc3ccccc3o2)no1 | inconclusive: 35.5 µM [inhibitor, partial curve, poor fit] | –
8 | O=C1CSC(c2ccccc2)N1CC(O)c1ccc([N+](=O)[O-])cc1 (stereo unspecified) | inconclusive: 50.1 µM [inhibitor, single point] | –
9 | S=C1NCN(Cc2ccccc2)CN1C1CCCCC1 | inconclusive: 50.1 µM [inhibitor, partial curve, poor fit] | –
10 | Cc1ccc(CN(C(=O)c2cc(=O)c3cc(Cl)ccc3o2)c2ccccn2)cc1 | inconclusive: 35.5 µM [inhibitor, partial curve, poor fit] | –
11 | COc1cc(CCC(=O)Nc2ccc(S(=O)(=O)N3CCOCC3)cc2)cc(OC)c1OC | inactive | –
12 | O=C(CCCN1C(=O)/C(=C/c2ccccc2)SC1=S)Nc1ccc(C(=O)O)c(O)c1 | inconclusive: 100 µM [inhibitor, single point] | –
13 | CC(C)NC(=O)NC(=O)C(C)Sc1cccc2cccnc12 (stereo unspecified) | inconclusive: 3.16 µM [inhibitor, full curve] | –
14 | O=C(COc1ccccc1F)N1CCN(S(=O)(=O)/C=C/c2ccccc2)CC1 | inconclusive: 44.7 µM [inhibitor, partial curve, poor fit] | –
15 | COc1cc(C(=O)N2CCN(Cc3ccccc3C(F)(F)F)CC2)cc(OC)c1OC | inconclusive: 0.355 µM [inhibitor, full curve, poor fit] | –
16 | CC(C)OC(=O)N(C)C[C@H]1OCc2cn(nn2)CCCC(=O)N([C@@H](C)CO)C[C@@H]1C | inconclusive: 126 µM [inhibitor, partial curve, poor fit] | –
17 | CCOC(=O)c1c(CN2CCCCC2)oc2ccc(OC)cc12 | inactive and inconclusive: 112 µM [inhibitor, single point] | –
18 | COc1ccc(Cl)cc1NC(=O)CN(C)C(=O)c1cccc(-n2cnnn2)c1 | inconclusive: 126 µM [inhibitor, single point] | –
19 | CCCCC(O)(c1ccc(OC)cc1)C(CN1CCOCC1)c1ccccc1 (stereo unspecified) | inconclusive: 39.8 µM [inhibitor, partial curve, poor fit] | –
20 | CCOc1ccc(CC(=O)Nc2ccc(NC(=O)c3ccco3)cc2)cc1OCC | inactive | –
21 | Cc1cccc(NC(=O)CC2C(=O)NCCN2C(=O)Nc2ccc(Cl)cc2)c1 (stereo unspecified) | inconclusive: 56.2 µM [inhibitor, partial curve, poor fit] | –
22 | CN1/C(=C/C2CC(=O)N(c3ccc([N+](=O)[O-])cc3)C2=O)C(C)(C)c2ccccc21 (stereo unspecified) | inconclusive: 8.91 µM [inhibitor, full curve] | –

Row | SMILES | Potency | activity change, negative = inhibition
23 | Cc1ccc(S(=O)(=O)NC(=O)c2ccc(-c3ccc(C)c4ccccc34)o2)cc1 | active: 35.5 µM | –
24 | COc1ccc2[nH]c3c(c2c1)CCNC31CCN(C(=O)C2CCCO2)CC1 (stereo unspecified) | inconclusive: 7.94 µM [inhibitor, full curve, poor fit] | –
25 | Cc1oc(C(=O)O)cc1COc1ccc2c3c(c(=O)oc2c1)CCC3 | inconclusive: 141 µM [inhibitor, partial curve, poor fit] | –
26 | COc1ccc(NC(=O)c2cccc(S(=O)(=O)Nc3ccc(Br)cc3)c2)cn1 | inconclusive: 79.4 µM [inhibitor, partial curve, poor fit] | –
27 | N=c1c(C(=O)NC2CCCCC2)cc2c(=O)n3ccccc3nc2n1Cc1cccnc1 | inconclusive: 17.8 µM [inhibitor, full curve, poor fit] | –
28 | COc1ccc(NC(=O)CSc2nnc(Cc3cccn3C)n2CCc2ccccc2)cc1OC | inactive | –
29 | CCOc1ccccc1NC(=O)COC(=O)C1CC(=O)N(c2c(C)cccc2C)C1 (stereo unspecified) | inactive | –
30 | Cc1cc(C(=O)OCC(=O)c2cccc([N+](=O)[O-])c2)c2ccccc2n1 | inconclusive: 50.1 µM [inhibitor, partial curve, poor fit] | –
31 | CCN(CC)CCN1CCN(c2cncc(-c3cccc(N)c3)n2)CC1 | inconclusive: 11.2 µM [inhibitor, partial curve] | –
32 | Cc1ccc(NC(=O)N2CCCC(Cn3cnc4cccnc43)C2)cc1Cl (stereo unspecified) | inactive | –
33 | Cc1ccc(S(=O)(=O)N2CC3=C(c4ccccc4)CC4(C)C(=O)C(C)(C)CC4=C3C2)cc1 (stereo unspecified) | inconclusive: 20 µM [inhibitor, partial curve] | –
34 | COCc1ccc2c(c1)c(OC(C)(C)C(=O)NC(C)C)nn2Cc1cccnc1 | inconclusive: 112 µM [inhibitor, partial curve, poor fit] | –
35 | CC(C)c1ccc(NC(c2nnc(-c3ccccc3)o2)c2ccc(F)cc2Cl)cc1 (stereo unspecified) | inactive | –
36 | O=C1NCc2ccccc2CC12CCCCN2Cc1ccc(Cl)s1 (stereo unspecified) | – | inactive: 11.7% [at 6.33 µM]
37 | O=C(NC1CCCCC1)C(CCc1ccccc1)N1CCc2ccccc2C1 (stereo unspecified) | inconclusive: 112 µM [inhibitor, single point] | –
38 | N#CC1(c2ccc(NC(=O)Cc3ccc(Cl)cc3)cc2)CCCC1 | inconclusive: 17.8 µM [inhibitor, partial curve, poor fit] | –
39 | CC1=C(c2ccc(C)c(C)c2)S(=O)(=O)N=C1N1CCC(C(=O)NC2CCCC2)CC1 | inactive | –
40 | O=C(O)Cn1nnnc1SCC(=O)Nc1ccc(OC(F)(F)F)cc1 | inconclusive: 31.6 µM [inhibitor, partial curve, poor fit] | –
41 | CCn1c(CSc2nnc3ccccn23)nc2cc(C(=O)O)ccc21 | inconclusive: 50.1 µM [inhibitor, partial curve] | –
42 | CCOc1ccc(NC(=O)Cn2cc(C(=O)c3ccc(F)cc3)c(=O)c3cc4c(cc32)OCCO4)cc1 | inconclusive: 70.8 µM [inhibitor, partial curve, poor fit] | –
43 | COc1cccc(CNC(=O)C2CCN(S(=O)(=O)c3ccc(C)cc3)CC2)c1 | inconclusive: 112 µM [inhibitor, partial curve, poor fit] | –
44 | O=C(COc1ccc2ccccc2c1)Nc1cccc2ncccc12 | inactive | –

Row | SMILES | Potency | activity change, negative = inhibition
45 | CC1=N/C(=C\c2ccc([N+](=O)[O-])cc2)C(=O)N1c1ccc(Br)c(C)c1 | inactive | –
46 | COc1cc(NC(=O)c2ncoc2-c2cccc(Cl)c2)cc(OC)c1 | inconclusive: 0.794 µM [inhibitor, full curve, poor fit] | –
47 | CCOc1ccc(NC(=O)CC2C(=O)N(c3ccccc3)C(=O)N2Cc2ccco2)cc1 (stereo unspecified) | inactive | –
48 | CCC(=O)Nc1cccc(C2=NN(c3ccccc3)C(c3ccc(OC)cc3)C2)c1 (stereo unspecified) | inconclusive: 39.8 µM [inhibitor, partial curve, poor fit] | –
49 | COc1ccc(OCC(=O)N2CCC[C@H]2c2nc(-c3ccccc3)no2)cc1 | inconclusive: 39.8 µM [inhibitor, partial curve, poor fit] | –
50 | Cc1cnc(NC(=O)CCNC(=O)c2ccsc2)s1 | inconclusive: 50.1 µM [inhibitor, partial curve, poor fit] | –
51 | COc1ccc(CN2CCCC(C(=O)c3ccc(SC)cc3)C2)cc1Cn1cccn1 (stereo unspecified) | inactive | –
52 | CCc1nc(C)cc2c1sc1ccccc12 | inconclusive: 44.7 µM [inhibitor, partial curve, poor fit] | –
53 | NS(=O)(=O)c1ccc(CNC(=O)COc2ccc3c4c(c(=O)oc3c2)CCCC4)cc1 | inactive | –
54 | Cc1cccc(CNc2ncncc2-c2ccccc2C)c1 | inconclusive: 10 µM [inhibitor, full curve, poor fit] | –
55 | CCCCC(=O)NC(c1ccco1)c1c(O)ccc2ccccc12 (stereo unspecified) | inactive | –
56 | Cn1cc(CN2CCC(n3nccc3NC(=O)c3ccccc3Cl)CC2)cn1 | inactive | –
57 | N#C/C(C(=O)N1CCOCC1)=c1/s/c(=C\c2ccccn2)c(=O)n1-c1ccccc1 | inactive | –
58 | Cc1ccc(C(O)c2ncc(-c3ccccc3)[nH]2)c(C)c1 (stereo unspecified) | inactive | –
59 | CN(Cc1ccccc1)C(=O)c1ccc(NC(=O)Cc2cccc(NC(=O)C3CCN(C(=O)C4CCCCC4)CC3)c2)cc1 | inactive | –
60 | N#C/C(=C\c1ccc(O)c(I)c1)c1nc2ccccc2[nH]1 | inactive | –
61 | O=C(O)c1ccccc1-c1ccccc1C(=O)Nc1ccc(-c2nc3cc(Cl)ccc3o2)cc1 | active: 44.7 µM | –
62 | CCn1nc(NC(=O)c2ccccc2)c2cc3cccc(C)c3nc21 | inconclusive: 31.6 µM [inhibitor, single point] | –
63 | CCOC(=O)C1=C(C)NC(=S)NC1c1cc(C)sc1C (stereo unspecified) | inconclusive: 28.2 µM [inhibitor, partial curve, poor fit] | –
64 | Cc1cc(C)n2c(Nc3c(C)cccc3C)c(-c3ccccn3)nc2n1 | inactive | –
65 | Cc1cc(C)c2oc(=O)cc(CN3CCCCC3)c2c1 | inconclusive: 126 µM [inhibitor, partial curve, poor fit] | –
66 | CCOC(=O)c1ccc(N/C(=N\S(=O)(=O)c2ccccc2C)c2ccccc2)cc1 | inactive | –
